Source: PubChem BioAssay AID504467 (National Center for Advancing Translational Sciences (NCATS), 2011)
Out of some 330,000 compounds screened, about 7,700 (2.3%) were called active. The inconclusive results got no clear call from the source; some entries with a clear call stand among them for comparison. Calls come from the whole dose curve; as a rule, active = well fitted inhibition curve with a large enough effect; inconclusive = small, poorly fitted or top-dose-only effect, or effect the other way; inactive = flat fitted curve, though single readings scatter. Potencies of inconclusive entries are doubtful fits and often do not repeat.

experiment: qHTS screen for small molecules that inhibit ELG1-dependent DNA repair in human embryonic kidney (HEK293T) cells expressing luciferase-tagged ELG1; settings: HEK293T ELG1-luciferase reporter, luminescence, 16 h, DNA damage induced by 5-fluorouridine; activity change, negative = inhibition: at 46.1 µM (top of the series); note: nearly all actives have a fitted effect of over 55% in size
Outline: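 In this reporter screen, reduction of luminescence relative to DMSO vehicle indicated activity. Compounds and 5-fluorouridine were added together to 2,000 cells per well, incubated for 16 hr at 37 °C, then developed with ONE-Glo.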
% is set by controls: 0 for no effect and ±100 for the full control effect; potency is the fitted concentration of half-maximal effect.

| SMILES | activity change, negative = inhibition | Potency |
| --- | --- | --- |
| C=CCN1CCc2nc(N)sc2CC1 | inactive: 19.7% | – |
| CCOC(=O)N1CCN(c2nc(N(c3ccccc3)c3ccccc3)nc(-n3ccnc3)n2)CC1 | inactive: 0% | – |
| CC(C)(C)OC(=O)C[C@@H]1C/C=C\C[C@H](CC(=O)N[C@@H](CO)Cc2ccccc2)C(=O)N[C@H](Cc2ccccc2)COC1=O | – | inconclusive: 29.1 µM [inhibitor, single point] |
| COc1cccc(NC(=O)C(=O)NCC2CCCN2S(=O)(=O)c2ccccc2)c1 (stereo unspecified) | – | inconclusive: 0.58 µM [activator, single point] |
| CCc1ccc(NC(=S)Nc2ccc3cn[nH]c3c2)cc1 | – | inconclusive: 18.4 µM [activator, partial curve, poor fit] |
| Cc1cc(C)c(NC(=O)c2ccoc2C)c(C)c1 | inactive: -2.8% | – |
| Cc1ccc2nc(NC(=O)c3cccs3)sc2c1 | – | inconclusive: 0.291 µM [activator, full curve] |
| CC(/C=N/NC(=O)c1cc(-c2cccn2C)n[nH]1)=C\c1ccccc1 | inactive: -19% | – |
| O=C(C[n+]1cc(-c2ccc(F)cc2)n2c1CCC2)Nc1nc(-c2ccc(F)cc2)cs1 | inactive: 1.6% | – |
| Cc1ccc(-n2ncc3c(SCC(=O)NNC(=O)C(C)C)ncnc32)cc1 | – | inconclusive: 18.3 µM [activator, partial curve] |
| CC1CCCN(S(=O)(=O)c2ccc(-c3ccc(=O)[nH]n3)o2)C1 (stereo unspecified) | – | inconclusive: 18.3 µM [activator, partial curve, poor fit] |
| COC1=C(Nc2ccc(C)cc2)C(=O)c2ccccc2C1=O | – | inconclusive: 18.4 µM [activator, partial curve] |
| COc1ccc(CSc2nc3ccccc3[nH]2)cc1 | – | inconclusive: 9.2 µM [activator, partial curve] |
| CC(C)c1cc(C(=O)Nc2cc(Br)ccc2O)no1 | – | inconclusive: 10.3 µM [activator, partial curve] |
| Cc1cc(C(=O)OCC(=O)c2ccc(Br)s2)c(C)o1 | – | inconclusive: 29.1 µM [activator, single point] |
| Cc1csc(-c2coc3cc(O)cc(C)c3c2=O)n1 | – | inconclusive: 8.2 µM [activator, partial curve] |
| O=C(N/N=C/c1cccnc1)c1ccccc1Cl | – | inconclusive: 18.3 µM [activator, single point] |
| CC(C)n1ncc2c(C(=O)Nc3ccc(S(N)(=O)=O)cc3)cc(C3CC3)nc21 | – | inconclusive: 29.1 µM [activator, single point] |
| CCO[C@@H]1OC(C(=O)NC2CC2)=C[C@H](c2ccccc2)[C@H]1CCCO | – | inconclusive: 16.4 µM [activator, partial curve, poor fit] |
| Cc1cccc(-c2nsc(SCC(=O)NCC3CCCO3)n2)c1 (stereo unspecified) | inactive: 2.67% | – |
| COc1ccc(CC(=O)Nc2cccc(-c3nnc(-c4ccccc4)o3)c2)cc1OC | – | active: 5.01 µM |
| C#CCOCCOCCOCCNc1nc(N2CCN(C(=O)CCCCCCCCCCNC(=O)[C@H](CO)n3cc(CCCSC)nn3)CC2)nc(N2CCN(C(=O)CCCCCCCCCCNC(=O)[C@H](CCCCN)n3cc(CCO)nn3)CC2)n1 | – | inconclusive: 16.4 µM [inhibitor, partial curve, poor fit] |

A draw from above in order of molecular weight, low to high.

| SMILES | activity change, negative = inhibition | Potency |
| --- | --- | --- |
| C=CCN1CCc2nc(N)sc2CC1 | inactive: 19.7% | – |
| CC(C)c1cc(C(=O)Nc2cc(Br)ccc2O)no1 | – | inconclusive: 10.3 µM [activator, partial curve] |
| Cc1cc(C(=O)OCC(=O)c2ccc(Br)s2)c(C)o1 | – | inconclusive: 29.1 µM [activator, single point] |
| CCO[C@@H]1OC(C(=O)NC2CC2)=C[C@H](c2ccccc2)[C@H]1CCCO | – | inconclusive: 16.4 µM [activator, partial curve, poor fit] |
| O=C(C[n+]1cc(-c2ccc(F)cc2)n2c1CCC2)Nc1nc(-c2ccc(F)cc2)cs1 | inactive: 1.6% | – |
| CC(C)(C)OC(=O)C[C@@H]1C/C=C\C[C@H](CC(=O)N[C@@H](CO)Cc2ccccc2)C(=O)N[C@H](Cc2ccccc2)COC1=O | – | inconclusive: 29.1 µM [inhibitor, single point] |

(more compounds)

| SMILES | activity change, negative = inhibition | Potency |
| --- | --- | --- |
| Nc1ccc(-c2nc3cc([N+](=O)[O-])ccc3o2)cc1 | – | inconclusive: 5.17 µM [activator, partial curve] |
| O=C(Nc1ccc(O)cc1)c1cc2n(n1)C(C(F)(F)F)CC(c1ccco1)N2 (stereo unspecified) | inactive: -11.8% | – |
| COC(=O)c1ccccc1NC(=O)Nc1nnc(N2CCCCC2C)s1 (stereo unspecified) | – | inconclusive: 16.4 µM [activator, partial curve, poor fit] |
| CC(=O)c1ccc(N2CCN(C(=O)Nc3cccc(F)c3)CC2)cc1 | – | inconclusive: 25.9 µM [inhibitor, partial curve, poor fit] |
| Cc1c(CNC(=O)c2nn3c(c2Cl)NC(c2ccccc2)CC3C(F)(F)F)cnn1C (stereo unspecified) | inactive: -28.7% | – |
| CCOC(=O)c1c(CSc2ccsc2)n(C)c2cc(Br)c(O)c(CN(C)C)c12 | inactive: -11.9% | – |
| COC(=O)c1cc(NC(=O)c2c(C)noc2C)ccc1N1CCOCC1 | inactive: -0.187% | – |
| Cc1cccc(-n2nc3c(c2NC(=O)C(C)C)CS(=O)(=O)C3)c1C | inactive: -1.46% | – |
| Cc1cccc(C)c1-n1nnnc1SCSc1nnnn1-c1c(C)cccc1C | – | inconclusive: 14.6 µM [inhibitor, partial curve, poor fit] |
| CCCCOC(=O)Nc1ccc(C(=O)OC)cc1 | – | inconclusive: 9.2 µM [activator, partial curve] |
| Cc1ccc(SCc2nc(-c3ccccn3)no2)cc1 | – | inconclusive: 7.31 µM [activator, single point] |
| CCCNC(=O)c1ccc(S(=O)(=O)c2ccc(OC)cc2)c([N+](=O)[O-])c1 | – | inconclusive: 14.6 µM [inhibitor, partial curve] |
| COc1ccc(C(C(=O)NC2CCCCC2)N(C(=O)c2ccco2)c2ccccc2C(C)=O)cc1 (stereo unspecified) | inactive: 6.41% | – |
| CCCc1c(C(=O)Nc2ccc(C(F)(F)F)cc2)cnn1-c1ccccc1 | – | inconclusive: 20.6 µM [inhibitor, partial curve, poor fit] |
| Nc1c(C(=O)NCCC2=CCCCC2)sc2ccc(S(=O)(=O)N3CCCCC3)cc12 | – | inconclusive: 16.4 µM [inhibitor, partial curve, poor fit] |
| Cc1ccc(CN2CCN(Cc3nc4c(s3)CCCC4)CC2CCO)cc1 (stereo unspecified) | – | inconclusive: 18.3 µM [inhibitor, single point] |
| O=C(Nc1ccc(F)cc1F)c1ccc2c(c1)OCCO2 | – | inconclusive: 7.3 µM [activator, partial curve] |
| CC(=O)Nc1ccc(NC(=O)Cn2c(CC(=O)N3CCCC3)nc3ccccc32)cc1 | – | inconclusive: 16.4 µM [activator, partial curve, poor fit] |
| CC(=O)N/C(=C\c1cccc([N+](=O)[O-])c1)C(=O)NC1CCCCC1 | – | inconclusive: 29.1 µM [activator, single point] |
| COc1c(C)cccc1C(=O)Nc1ccc(CN2CCOCC2)cc1 | – | inconclusive: 11.6 µM [activator, partial curve] |
| O=C(Nc1ccc2nc(-c3ccco3)c(-c3ccco3)nc2c1)N1CCN(c2ccccn2)CC1 | – | active: 11.6 µM |
| CCc1ccc(Nc2nnc(SCC(=O)c3c(N)n(C4CC4)c(=O)[nH]c3=O)s2)cc1 | – | inconclusive: 6.51 µM [activator, partial curve] |

| SMILES | activity change, negative = inhibition | Potency |
| --- | --- | --- |
| O=C1/C(=C/c2cccs2)N=C(c2cccs2)N1Nc1ccccc1 | – | inconclusive: 32.6 µM [inhibitor, partial curve, poor fit] |
| CCOC(=O)c1cc(-c2ccc(OC(F)F)cc2)nc2nc(SC)[nH]c(=O)c12 | – | inconclusive: 23.1 µM [inhibitor, single point] |
| Cc1ccc(S(=O)(=O)c2ccc(NC(=O)c3c(F)cccc3F)cc2)cc1 | inactive: -8.29% | – |
| CCOC(=O)c1c(C)[nH]c(C(=O)OCC(=O)Nc2cc(C)c(Cl)cc2OC)c1C | – | inconclusive: 29.1 µM [activator, single point] |
| COc1ccc(C2(c3ccc(OC)cc3)NC(=O)N(Cn3nnc4ccccc4c3=O)C2=O)cc1 | – | inconclusive: 29.1 µM [inhibitor, partial curve, poor fit] |
| Cc1nc2ccccc2n1C1CCN(CC(=O)Nc2ccccc2Br)CC1 | – | inconclusive: 16.4 µM [inhibitor, partial curve] |
| CN(C)c1ccc(/C=N/OC(=O)Nc2ccccc2)cc1 | – | inconclusive: 2.06 µM [activator, partial curve] |
| Cn1cnnc1SCCC(=O)Nc1ccc(Cl)cc1 | – | inconclusive: 18.4 µM [activator, partial curve, poor fit] |
| CCOC(=O)C1=NN(c2cccc(C)c2)C2(S1)SC(C(C)=O)=C(C)N2c1ccccc1 (stereo unspecified) | – | inconclusive: 18.4 µM [inhibitor, partial curve, poor fit] |
| COc1cc2c(cc1OC)CN(C(=S)Nc1ccccc1Cl)CC2 | – | inconclusive: 16.4 µM [inhibitor, single point] |
| CCOC(=O)c1c(N)sc2c1C1CCN2CC1 | – | inconclusive: 18.4 µM [activator, partial curve, poor fit] |
| COc1ccc(-c2cc(=O)n(-c3ccc([N+](=O)[O-])cc3)[nH]2)cc1 | – | inconclusive: 18.4 µM [activator, single point] |
| Cc1nnc(NC(=O)C2CCCN(S(=O)(=O)Cc3ccccc3)C2)s1 (stereo unspecified) | – | inconclusive: 23.1 µM [activator, single point] |
| COc1cccc(CN(C)C(=O)c2cc(COc3c(F)cccc3F)on2)c1 | inactive: 16.5% | – |
| O=C(CCC1CCCCC1)Nc1ccccc1O | – | inconclusive: 12.6 µM [activator, partial curve] |
| O=C(COC(=O)c1ccc(O)cc1)Nc1cc(S(=O)(=O)N2CCOCC2)ccc1Cl | – | inconclusive: 17.8 µM [inhibitor, partial curve, poor fit] |
| Fc1ccc(NC(=S)N2CCCN(c3ccc(C(F)(F)F)cn3)CC2)c(F)c1 | – | inconclusive: 0.58 µM [inhibitor, single point] |
| O=C(O)c1ccc(NC(=O)c2cccc(S(=O)(=O)Nc3ccc(C(=O)O)cc3)c2)cc1 | inactive: 3.51% | – |
| CCc1nnc(NC(=O)CSc2nccn2-c2cccc(C)c2)s1 | inactive: -11.6% | – |
| COc1ccc(C2NC(=O)CCC2[N+](=O)[O-])cc1 (stereo unspecified) | inactive: 2.32% | – |
| CCOc1ccc(N2CC(C(=O)Nc3nnc(CC)s3)CC2=O)cc1 (stereo unspecified) | inactive: 9.58% | – |
| Cc1cc(C(=O)N/N=C/C=C/c2ccccc2[N+](=O)[O-])c(C)o1 | – | inconclusive: 18.3 µM [inhibitor, single point] |
